From US20150126603A1, “TREATMENT OF POULTRY, PIGS OR FISH FOR REDUCING THE FEED CONVERSION RATIO OR INCREASING THEIR BODYWEIGHT GAIN” (TAMINCO, priority 2012, published 2015)

Assays:
[1] = tested on: Ross 308 chickens; settings: for Anserine / HCD (Histidine Containing Dipeptides) / Taurine / Carnosine: 500 mg/kg beta-alanine in diet; for Carnosine: 42 days of age
[2] = tested on: chickens; settings: 22 mmol/kg bodyweight orally twice a day for five days; cited from earlier work

Question: For `NCCC(=O)O` [Beta-alanine, β-alanine], which “effect on the muscular concentrations of carnosine, anserine and taurine” value ([1]; 500 mg/kg β-alanine in diet) is on record?
Answer: substantially no effect

Question: And the Anserine ([1]; breast muscle)?
Answer: 36.9 mmol/kg

Question: What about the “HCD (Histidine Containing Dipeptides)” value ([1]; breast muscle) of the same molecule?
Answer: 44.8 mmol/kg

Question: And the Taurine ([1]; breast muscle)?
Answer: 2.2 mmol/kg

Question: What about the Carnosine ([1]; breast muscle) of the same molecule?
Answer: 7.9 mmol/kg

Question: What about the Anserine ([1]; thigh muscle) of the same molecule?
Answer: 12.6 mmol/kg

Question: What about the “HCD (Histidine Containing Dipeptides)” value ([1]; thigh muscle) of the same molecule?
Answer: 17.4 mmol/kg

Question: And the Taurine ([1]; thigh muscle)?
Answer: 5.6 mmol/kg

Question: What about the Carnosine ([1]; thigh muscle) of the same molecule?
Answer: 4.8 mmol/kg

Question: What about the anserine level [2] of the same molecule?
Answer: decreased

Question: And the “carnosine concentrations in breast muscle and brains” value [2]?
Answer: increases

Question: And the “dipeptide (carnosine and anserine) level” value [2]?
Answer: no significant increase

Question: And the “reduction of taurine concentration in the breast muscles” value [2]?
Answer: more than 50%

Like-named read-outs stand apart in the source and are kept apart here.
